Reference: doi:10.1101/2022.07.21.500952
Read-outs that look alike come from different tables or passages of the source. No constants are given. Whether binding was seen depends on the method and setting. Binding seen in cells or lysates may run through a third protein. Some entries that bind do so weakly or less than the wild type. For some of these results: Tags and fused reporters may be left off the sequences shown. Blank lines part the entries; values can stand above or below the molecule they belong to.

The chains behind the UniProt entries cited, without tags or fusion partners.
UniProt Q13200: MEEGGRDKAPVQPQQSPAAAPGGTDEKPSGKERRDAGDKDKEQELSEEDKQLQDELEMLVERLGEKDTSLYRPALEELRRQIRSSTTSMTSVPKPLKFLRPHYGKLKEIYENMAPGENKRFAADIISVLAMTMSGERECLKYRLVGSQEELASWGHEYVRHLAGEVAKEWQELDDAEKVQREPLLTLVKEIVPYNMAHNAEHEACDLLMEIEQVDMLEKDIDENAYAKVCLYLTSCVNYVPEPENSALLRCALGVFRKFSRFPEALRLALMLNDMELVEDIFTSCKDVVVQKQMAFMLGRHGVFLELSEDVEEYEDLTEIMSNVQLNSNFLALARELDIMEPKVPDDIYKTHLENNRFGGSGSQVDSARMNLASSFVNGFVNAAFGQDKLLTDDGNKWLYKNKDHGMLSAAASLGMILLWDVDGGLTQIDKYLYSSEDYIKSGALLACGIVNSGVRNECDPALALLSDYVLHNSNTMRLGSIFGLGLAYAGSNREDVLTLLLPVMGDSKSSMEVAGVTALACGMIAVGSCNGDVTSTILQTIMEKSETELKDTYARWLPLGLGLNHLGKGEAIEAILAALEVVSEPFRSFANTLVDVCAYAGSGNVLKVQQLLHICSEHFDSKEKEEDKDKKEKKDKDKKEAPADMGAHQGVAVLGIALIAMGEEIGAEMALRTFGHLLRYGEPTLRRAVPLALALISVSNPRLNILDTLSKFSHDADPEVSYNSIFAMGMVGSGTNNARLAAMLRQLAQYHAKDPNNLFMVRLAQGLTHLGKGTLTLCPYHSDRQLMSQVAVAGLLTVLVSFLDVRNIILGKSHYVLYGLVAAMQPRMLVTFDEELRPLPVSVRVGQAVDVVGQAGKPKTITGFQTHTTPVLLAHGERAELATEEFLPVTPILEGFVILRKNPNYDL
UniProt Q16186: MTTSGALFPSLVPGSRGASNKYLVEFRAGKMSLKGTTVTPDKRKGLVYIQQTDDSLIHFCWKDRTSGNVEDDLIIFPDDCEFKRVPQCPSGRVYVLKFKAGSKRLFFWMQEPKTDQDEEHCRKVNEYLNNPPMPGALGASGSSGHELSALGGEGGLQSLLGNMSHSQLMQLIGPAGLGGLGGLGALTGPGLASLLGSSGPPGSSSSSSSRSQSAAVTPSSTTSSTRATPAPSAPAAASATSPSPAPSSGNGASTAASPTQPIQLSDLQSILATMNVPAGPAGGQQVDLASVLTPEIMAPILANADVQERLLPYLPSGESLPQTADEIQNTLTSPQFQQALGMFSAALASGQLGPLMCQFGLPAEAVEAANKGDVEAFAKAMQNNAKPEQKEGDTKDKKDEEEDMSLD
UniProt O00487: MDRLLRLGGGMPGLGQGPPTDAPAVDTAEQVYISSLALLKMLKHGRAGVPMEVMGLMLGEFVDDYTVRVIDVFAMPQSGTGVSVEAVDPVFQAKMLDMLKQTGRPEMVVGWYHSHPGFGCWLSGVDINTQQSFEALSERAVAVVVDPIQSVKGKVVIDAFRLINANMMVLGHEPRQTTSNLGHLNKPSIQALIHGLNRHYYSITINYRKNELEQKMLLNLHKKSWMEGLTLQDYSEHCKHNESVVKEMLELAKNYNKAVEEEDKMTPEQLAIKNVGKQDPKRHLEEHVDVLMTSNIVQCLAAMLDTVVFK
UniProt P62333: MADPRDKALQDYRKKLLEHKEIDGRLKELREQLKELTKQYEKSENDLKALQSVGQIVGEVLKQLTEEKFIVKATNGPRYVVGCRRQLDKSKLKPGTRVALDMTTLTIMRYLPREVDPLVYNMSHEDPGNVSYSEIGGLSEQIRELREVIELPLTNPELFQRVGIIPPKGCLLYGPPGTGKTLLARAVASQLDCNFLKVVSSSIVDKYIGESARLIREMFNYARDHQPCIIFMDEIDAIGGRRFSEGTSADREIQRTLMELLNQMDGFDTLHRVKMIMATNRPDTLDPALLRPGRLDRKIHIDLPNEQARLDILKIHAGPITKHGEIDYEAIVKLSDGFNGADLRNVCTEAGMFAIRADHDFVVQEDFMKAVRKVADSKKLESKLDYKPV
UniProt O00232: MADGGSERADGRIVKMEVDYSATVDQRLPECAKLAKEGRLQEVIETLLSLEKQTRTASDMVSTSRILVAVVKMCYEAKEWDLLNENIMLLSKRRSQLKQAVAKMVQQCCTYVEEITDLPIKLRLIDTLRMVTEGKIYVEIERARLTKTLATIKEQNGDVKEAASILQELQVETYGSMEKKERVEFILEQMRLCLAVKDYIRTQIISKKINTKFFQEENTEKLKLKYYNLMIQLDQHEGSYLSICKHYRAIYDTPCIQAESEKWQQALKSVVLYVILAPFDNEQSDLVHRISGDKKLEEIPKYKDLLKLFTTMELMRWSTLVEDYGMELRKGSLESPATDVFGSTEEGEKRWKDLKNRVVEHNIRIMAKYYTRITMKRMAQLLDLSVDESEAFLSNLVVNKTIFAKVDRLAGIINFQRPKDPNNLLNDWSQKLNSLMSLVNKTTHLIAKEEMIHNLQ
UniProt Q16531: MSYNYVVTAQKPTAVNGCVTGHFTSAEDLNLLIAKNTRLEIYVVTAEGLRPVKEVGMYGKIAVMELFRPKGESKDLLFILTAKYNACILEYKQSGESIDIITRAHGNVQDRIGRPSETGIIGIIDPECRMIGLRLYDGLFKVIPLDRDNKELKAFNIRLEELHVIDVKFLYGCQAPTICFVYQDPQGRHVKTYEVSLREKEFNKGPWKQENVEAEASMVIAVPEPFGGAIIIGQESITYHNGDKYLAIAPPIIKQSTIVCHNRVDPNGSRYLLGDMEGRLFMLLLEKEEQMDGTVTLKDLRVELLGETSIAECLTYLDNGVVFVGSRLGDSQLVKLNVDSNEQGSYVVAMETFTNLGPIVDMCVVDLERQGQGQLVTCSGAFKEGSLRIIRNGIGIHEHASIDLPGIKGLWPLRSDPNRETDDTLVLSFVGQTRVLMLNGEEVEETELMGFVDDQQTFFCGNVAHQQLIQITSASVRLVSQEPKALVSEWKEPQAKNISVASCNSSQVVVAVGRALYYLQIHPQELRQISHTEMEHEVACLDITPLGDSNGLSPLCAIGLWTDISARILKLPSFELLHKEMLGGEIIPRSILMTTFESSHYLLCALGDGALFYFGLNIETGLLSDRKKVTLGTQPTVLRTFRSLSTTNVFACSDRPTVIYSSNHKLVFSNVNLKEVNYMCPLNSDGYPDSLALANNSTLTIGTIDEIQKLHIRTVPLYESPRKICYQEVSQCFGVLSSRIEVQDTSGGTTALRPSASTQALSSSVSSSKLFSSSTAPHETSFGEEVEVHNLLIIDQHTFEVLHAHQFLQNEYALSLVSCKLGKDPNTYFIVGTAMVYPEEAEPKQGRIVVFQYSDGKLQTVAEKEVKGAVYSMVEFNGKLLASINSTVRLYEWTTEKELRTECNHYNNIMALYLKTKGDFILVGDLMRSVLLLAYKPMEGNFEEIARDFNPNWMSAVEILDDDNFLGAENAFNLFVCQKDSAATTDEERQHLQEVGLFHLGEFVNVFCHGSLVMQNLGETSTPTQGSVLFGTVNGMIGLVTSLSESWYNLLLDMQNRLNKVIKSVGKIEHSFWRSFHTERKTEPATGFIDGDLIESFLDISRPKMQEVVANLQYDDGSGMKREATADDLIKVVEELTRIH
UniProt Q16401: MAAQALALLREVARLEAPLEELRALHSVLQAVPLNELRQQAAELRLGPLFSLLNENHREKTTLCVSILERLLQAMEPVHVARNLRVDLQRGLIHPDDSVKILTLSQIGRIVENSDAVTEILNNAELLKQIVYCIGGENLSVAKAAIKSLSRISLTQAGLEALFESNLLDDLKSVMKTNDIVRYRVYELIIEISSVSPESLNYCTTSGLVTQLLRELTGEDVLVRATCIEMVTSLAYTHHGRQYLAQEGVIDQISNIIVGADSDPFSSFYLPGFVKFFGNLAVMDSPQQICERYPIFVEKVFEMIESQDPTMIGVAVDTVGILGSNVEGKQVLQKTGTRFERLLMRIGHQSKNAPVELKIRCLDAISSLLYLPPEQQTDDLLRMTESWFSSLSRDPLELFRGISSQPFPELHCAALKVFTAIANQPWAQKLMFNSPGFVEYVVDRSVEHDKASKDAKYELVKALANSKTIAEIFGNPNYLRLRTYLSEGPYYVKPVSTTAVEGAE

How the values were obtained:
Flag-tagged PSMD2^Rpn1 [1] = target: Flag-tagged PSMD2^Rpn1 (UniProt Q13200); experiment: co-IP
His-WDR70 (112-654 aa) = target: T1, His-WDR70 (112-654 aa) (UniProt Q9NW82); experiment: pull-down
T1 sequence: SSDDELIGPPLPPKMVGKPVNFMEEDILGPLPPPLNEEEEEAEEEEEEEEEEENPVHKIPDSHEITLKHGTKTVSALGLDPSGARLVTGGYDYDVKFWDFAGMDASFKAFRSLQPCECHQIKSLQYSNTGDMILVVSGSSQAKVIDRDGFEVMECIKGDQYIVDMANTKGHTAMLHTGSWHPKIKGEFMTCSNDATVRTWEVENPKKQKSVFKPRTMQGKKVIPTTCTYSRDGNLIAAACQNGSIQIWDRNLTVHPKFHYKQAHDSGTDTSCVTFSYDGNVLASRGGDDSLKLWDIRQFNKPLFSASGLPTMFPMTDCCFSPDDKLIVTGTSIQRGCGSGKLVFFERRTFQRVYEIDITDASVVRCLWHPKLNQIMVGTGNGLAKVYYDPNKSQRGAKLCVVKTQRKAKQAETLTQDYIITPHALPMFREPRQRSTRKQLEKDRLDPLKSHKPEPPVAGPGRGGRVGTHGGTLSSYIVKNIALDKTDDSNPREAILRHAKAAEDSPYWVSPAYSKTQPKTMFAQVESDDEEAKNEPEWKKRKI

Flag-ADRM1^Rpn13 (human) = Flag-ADRM1^Rpn13 (human) (UniProt Q16186); experiment: co-IP
Flag-POH1^Rpn11 = Flag-POH1^Rpn11 (UniProt O00487); experiment: co-IP
Flag-PSMC6^Rpt4 = Flag-PSMC6^Rpt4 (UniProt P62333); experiment: co-IP
Flag-PSMD12^Rpn5 = Flag-PSMD12^Rpn5 (UniProt O00232); experiment: co-IP
Flag-tagged PSMD2^Rpn1 [2] = target: Flag-tagged PSMD2^Rpn1 (UniProt Q13200); experiment: co-IP; remark: listed apart in the source

binding (Flag-tagged PSMD2^Rpn1 [1]): binds
Molecule: DDB1 (endogenous, L02 and T43 cells) (from UniProt Q16531 1-1140)

binding (His-WDR70 (112-654 aa)): binds
Molecule: PSMD5^Hsm3 (endogenous, HEK293T nuclear extract) (from UniProt Q16401 1-504)

binding (Flag-ADRM1^Rpn13 (human)): binds
binding (Flag-POH1^Rpn11): binds
binding (Flag-PSMC6^Rpt4): binds
binding (Flag-PSMD12^Rpn5): binds
B1: WDR70 (endogenous, HEK293T) (protein, UniProt Q9NW82 1-654)
chain: MERSGPSEVTGSDASGPDPQLAVTMGFTGFGKKARTFDLEAMFEQTRRTAVERSRKTLEAREKEEEMNREKELRRQNEDIEPTSSRSNVVRDCSKSSSRDTSSSESEQSSDSSDDELIGPPLPPKMVGKPVNFMEEDILGPLPPPLNEEEEEAEEEEEEEEEEENPVHKIPDSHEITLKHGTKTVSALGLDPSGARLVTGGYDYDVKFWDFAGMDASFKAFRSLQPCECHQIKSLQYSNTGDMILVVSGSSQAKVIDRDGFEVMECIKGDQYIVDMANTKGHTAMLHTGSWHPKIKGEFMTCSNDATVRTWEVENPKKQKSVFKPRTMQGKKVIPTTCTYSRDGNLIAAACQNGSIQIWDRNLTVHPKFHYKQAHDSGTDTSCVTFSYDGNVLASRGGDDSLKLWDIRQFNKPLFSASGLPTMFPMTDCCFSPDDKLIVTGTSIQRGCGSGKLVFFERRTFQRVYEIDITDASVVRCLWHPKLNQIMVGTGNGLAKVYYDPNKSQRGAKLCVVKTQRKAKQAETLTQDYIITPHALPMFREPRQRSTRKQLEKDRLDPLKSHKPEPPVAGPGRGGRVGTHGGTLSSYIVKNIALDKTDDSNPREAILRHAKAAEDSPYWVSPAYSKTQPKTMFAQVESDDEEAKNEPEWKKRKI

binding (Flag-tagged PSMD2^Rpn1 [2]): binds
B2: WDR70 (endogenous, L02 and T43 cells) (protein, UniProt Q9NW82 1-654)
chain: MERSGPSEVTGSDASGPDPQLAVTMGFTGFGKKARTFDLEAMFEQTRRTAVERSRKTLEAREKEEEMNREKELRRQNEDIEPTSSRSNVVRDCSKSSSRDTSSSESEQSSDSSDDELIGPPLPPKMVGKPVNFMEEDILGPLPPPLNEEEEEAEEEEEEEEEEENPVHKIPDSHEITLKHGTKTVSALGLDPSGARLVTGGYDYDVKFWDFAGMDASFKAFRSLQPCECHQIKSLQYSNTGDMILVVSGSSQAKVIDRDGFEVMECIKGDQYIVDMANTKGHTAMLHTGSWHPKIKGEFMTCSNDATVRTWEVENPKKQKSVFKPRTMQGKKVIPTTCTYSRDGNLIAAACQNGSIQIWDRNLTVHPKFHYKQAHDSGTDTSCVTFSYDGNVLASRGGDDSLKLWDIRQFNKPLFSASGLPTMFPMTDCCFSPDDKLIVTGTSIQRGCGSGKLVFFERRTFQRVYEIDITDASVVRCLWHPKLNQIMVGTGNGLAKVYYDPNKSQRGAKLCVVKTQRKAKQAETLTQDYIITPHALPMFREPRQRSTRKQLEKDRLDPLKSHKPEPPVAGPGRGGRVGTHGGTLSSYIVKNIALDKTDDSNPREAILRHAKAAEDSPYWVSPAYSKTQPKTMFAQVESDDEEAKNEPEWKKRKI
